Publication PMC4830570, “CD36 Differently Regulates Macrophage Responses to Smooth and Rough Lipopolysaccharide” (PLoS ONE, 2016)
These are yes or no findings as the source states them, for the method shown. Some results given as binding are weak or reduced against the parent protein; the word gives no strength. Where a sequence is shown, tags or fusion partners need not be part of it.

Sequences of proteins named here, by UniProt entry; tags and fusion partners are left off.
UniProt Q08857: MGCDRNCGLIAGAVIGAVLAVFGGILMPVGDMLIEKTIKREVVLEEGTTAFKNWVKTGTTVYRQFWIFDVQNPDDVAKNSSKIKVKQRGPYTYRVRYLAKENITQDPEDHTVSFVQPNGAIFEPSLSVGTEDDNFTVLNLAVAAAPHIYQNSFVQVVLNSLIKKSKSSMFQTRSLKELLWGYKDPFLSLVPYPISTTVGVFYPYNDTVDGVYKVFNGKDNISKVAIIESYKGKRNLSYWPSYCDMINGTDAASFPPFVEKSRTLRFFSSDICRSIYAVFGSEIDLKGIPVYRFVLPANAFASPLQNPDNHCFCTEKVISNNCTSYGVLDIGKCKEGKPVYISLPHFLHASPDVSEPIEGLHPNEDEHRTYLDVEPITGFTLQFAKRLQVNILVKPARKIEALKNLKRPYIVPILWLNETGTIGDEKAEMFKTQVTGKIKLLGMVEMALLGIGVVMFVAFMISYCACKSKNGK

T1: recombinant mouse CD14 tagged with the Fc fragment of human IgG1 (mouse) (UniProt P10810)
T1 sequence: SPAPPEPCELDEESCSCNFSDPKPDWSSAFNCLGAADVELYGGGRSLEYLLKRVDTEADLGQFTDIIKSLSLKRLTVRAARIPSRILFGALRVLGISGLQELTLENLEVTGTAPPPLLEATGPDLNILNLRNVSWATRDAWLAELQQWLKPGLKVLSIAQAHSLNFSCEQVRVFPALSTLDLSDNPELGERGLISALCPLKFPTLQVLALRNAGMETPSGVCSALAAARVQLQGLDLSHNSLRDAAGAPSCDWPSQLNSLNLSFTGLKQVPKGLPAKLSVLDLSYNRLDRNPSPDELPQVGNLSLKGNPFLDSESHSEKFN

B1: recombinant mouse LPS-binding protein (protein, UniProt Q61805 25-481)
chain: GVNPGVVARITDKGLAYAAKEGLVALQRELYKITLPDFSGDFKIKAVGRGQYEFHSLEIQNCELRGSSLKLLPGQGLSLAISDSSIGVRGKWKVRKSFLKLHGSFDLDVKGVTISVDLLLGMDPSGRPTVSASGCSSRICDLDVHISGNVGWLLNLFHNQIESKLQKVLENKVCEMIQKSVTSDLQPYLQTLPVTAEIDNVLGIDYSLVAAPQAKAQVLDVMFKGEIFNRNHRSPVATPTPTMSLPEDSKQMVYFAISDYAFNIASRVYHQAGYLNFSITDDMLPHDSGIRLNTKAFRPFTPQIYKKYPDMKLELLGTVVSAPILNVSPGNLSLAPQMEIEGFVILPTSAREPVFRLGVVTNVFASLTFNNSKVTGMLHPDKAQVRLIESKVGMFNVNLFQAFLNYYLLNSLYPDVNAELAQGFPLPLPRHIQLHDLDFQIRKDFLYLGANVQYMRV
B2: recombinant mouse CD14 tagged with the Fc fragment of human IgG1 (Fc fusion, UniProt P10810 16-336, looked up)
chain: T1 sequence
notes: CD14, mouse, recombinant soluble receptor from R&D Systems; also called rCD14; source: bought: R&D Systems

Legend:
[1] = biological target: T1, recombinant mouse CD14 tagged with the Fc fragment of human IgG1 (mouse); test: ELISA; receptor (5 μg/ml) adsorbed to plate; soluble rLBP at different concentrations, with or without 1 μg/ml S-LPS, 90 min at 37°C in FCS-PBS (10% FCS in PBS); bound rLBP detected with HRP-anti-6×Histidine; both purified
[2] = biological target: CD36 on the surface of mouse peritoneal exudate macrophages (mouse (endogenous in peritoneal exudate macrophages)) (UniProt Q08857); test: cellular ELISA; rCD14 with 200 ng/ml S-LPS on adherent PEMs, 40 min co-incubation at 37°C, in the absence of serum; detected with HRP-anti-Fc; only the binder purified
[3] = biological target: CD36 on the surface of mouse peritoneal exudate macrophages (mouse (endogenous in peritoneal exudate macrophages)) (UniProt Q08857); test: cellular ELISA; 5 μg/ml rCD14 without LPS on adherent PEMs, 50 min at 37°C in FCS-RPMI; bound rCD14 detected with HRP-anti-Fc; only the binder purified

| Binder | binding [1] | binding [2] | binding [3] |
| --- | --- | --- | --- |
| B1 | binds weakly |  |  |
| B2 |  | binds | binds weakly |
